No constants are given. Whether binding was seen depends on the method and setting. Binding seen in cells or lysates may run through a third protein. Binding can be weak; no strength is given. Where a sequence is shown, tags or fusion partners need not be part of it. Blank lines part the entries; values can stand above or below the molecule they belong to.
Target: SIM-deficient human Ulk4, HA-tagged (Ulk4-ΔSIM–HA) (human) (UniProt Q96C45)
Experiment: co-IP; HEK293T cells transfected with Fg-tagged and HA-tagged Ulk4 constructs, immunoprecipitation and western blot with the indicated antibodies (which tag was precipitated is not given)

binding: binds
Molecule: Flag-tagged Ulk4-EE (Ulk4-EE–Fg), phospho-mimetic human Ulk4 T1021E/T1023E (from UniProt Q96C45 1-1275)

binding: no binding
B1: C-terminal fragment of Ulk4-EE from amino acids 1004–1275, Flag-tagged (C272-EE–Fg) (domain or fragment, UniProt Q96C45 1004-1275)
chain: VPAYALKLLVAMTEHNPEFERLVEESKLIPLIFEVTLEHQESILGNTMQSVIALLSNLVACKDSNMELLYEQGLVSHICNLLTETATLCLDVDNKNNNEMAAPLLFSLLDILHSMLTYTSGIVRLALQAQKSGSGEDPQAAEDLLLLNRPLTDLISLLIPLLPNEDPEIFDVSSKCLSILVQLYGGENPDSLSPENVEIFAHLLTSKEDPKEQKLLLRILRRMITSNEKHLESLKNAGSLLRALERLAPGSGSFADSAVAPLALEILQAVGH

Source: publication PMC12148026
